The target in this experiment is human LGN (residues 1-677) with a C-terminal FLAG-tag (human). Briefly: co-IP; HEK293T transfected with Par3-GFP, FLAG-LGN and HA-Insc, mitotic (nocodazole) lysates, anti-FLAG sepharose beads.

From PMC5844954 come the findings set out here.

Results are given in words; binding and its absence hold for the method and conditions named. In cells and extracts the contact can be indirect. Binding calls can cover weak binding; strength is not graded here. Sequences can lack the tags named with a protein.

B1: human Insc (residues 1-532) with an N-terminal HA-tag (protein, UniProt Q1MX18-2 1-532)
chain: MMALPGGRHLDSVTLPGQRLHLMQVDSVQRWMEDLKLMTECECMCVLQAKPISLEEDAQGDLILAGGPGPGDPLQLLLKRGWVISTELRRIGQKLAQDRWARVHSMSVRLTCHARSMVSEYSAVSRNSLKEMGEIEKLLMEKCSELSAVTERCLQVENEHVLKSMKACVSETLSMLGQHFGQLLELALTREVQALVRKIDASDNIYTTESTTGNLFSLTQEGAPLCRIIAKEGGVVALFKVCRQDSFRCLYPQALRTLASICCVEEGVHQLEKVDGVLCLADILTDNSHSEATRAEAAAVVAQVTSPHLPVTQHLSSFLESMEEIVTALVKLCQEASSGEVFLLASAALANITFFDTMACEMLLQLNAIRVLLEACSDKQRVDTPYTRDQIVTILANMSVLEQCASDIIQENGVQLIMGMLSEKPRSGTPAEVAACERVQQKAAVTLARLSRDPDVAREAVRLSCMSRLIELCRSPSERNSSDAVLVACLAALRRLAGVCPEGLQDSDFQQLVQPRLVDSFLLCSNMEESFV
Consider B1, for which the binding entry is on record as “binds”.
